In patent US20240360193A1, “POLYPEPTIDE DERIVATIVE WITH DUAL GLP-1R AND GIPR TARGETING AGONISTIC EFFECT, AND PREPARATION METHOD AND USE THEREOF” (NANJING ZHIHE MEDICINE TECHNOLOGY CO., LTD., priority 2021, published 2024):
Part of at least one peptide drawing is inferred or uncertain, most often the ends. For at least one compound, name, drawing or mass did not settle the structure. Square brackets hold non-standard residues; d marks the D form. Peptide text beside a SMILES is read from it. * marks the point of attachment. X1 = O=C(O)CCCCCCCCCCCCCCCCCCC(=O)NC(CCC(=O)NCCOCCOCCNC(=O)COCCOCC(=O)*)C(=O)O; Aib = CC(C)(N)C(=O)O

Test system: ob/ob mice
Assay: Glucose-lowering, weight-loss and fat-loss experiments in ob/ob mice
Assay type: in vivo
Conditions: for fat-weight coefficient, abdominal subcutaneous fat / fat-weight coefficient, perigonadal fat / fat-weight coefficient, scapular subcutaneous fat: day 23, fat/weight×100; for food intake / water intake: measured once a day from D0; for blood glucose: random blood glucose
[1] = D 0 (before the administration)
[2] = D 0 (before the first administration)
[3] = SC once every three days, day 0 (initial)
[4] = SC once every three days, day 1
[5] = SC once every three days, day 2
[6] = SC once every three days, day 3
[7] = SC once every three days, day 4
[8] = SC once every three days, day 5
[9] = SC once every three days, day 6
[10] = SC once every three days, day 7
[11] = SC once every three days, day 8
[12] = SC once every three days, day 9
[13] = SC once every three days, day 10
[14] = SC once every three days, day 11
[15] = SC once every three days, day 12
[16] = SC once every three days, day 13
[17] = SC once every three days, day 14
[18] = SC once every three days, day 15
[19] = SC once every three days, day 16
[20] = SC once every three days, day 17
[21] = SC once every three days, day 18
[22] = SC once every three days, day 19
[23] = SC once every three days, day 20
[24] = SC once every three days, day 21
[25] = SC once every three days, day 22
[26] = SC once every three days, day 23

In the case of `CC[C@H](C)[C@H](NC(=O)[C@H](CC(C)C)NC(=O)[C@H](Cc1c[nH]c2ccccc12)NC(=O)[C@H](CCC(N)=O)NC(=O)[C@@H](NC(=O)[C@H](Cc1ccccc1)NC(=O)[C@H](C)NC(=O)[C@H](CCCCNC(=O)COCCOCCNC(=O)COCCOCCNC(=O)CC[C@H](NC(=O)CCCCCCCCCCCCCCCCCCC(=O)O)C(=O)O)NC(=O)[C@H](CCC(N)=O)NC(=O)[C@H](C)NC(=O)[C@@H](NC(=O)[C@H](CCCCN)NC(=O)[C@H](CC(=O)O)NC(=O)[C@H](CC(C)C)NC(=O)C(C)(C)NC(=O)[C@@H](NC(=O)[C@H](CO)NC(=O)[C@H](Cc1ccc(O)cc1)NC(=O)[C@H](CC(=O)O)NC(=O)[C@H](CO)NC(=O)[C@@H](NC(=O)[C@H](Cc1ccccc1)NC(=O)[C@@H](NC(=O)CNC(=O)[C@H](CCC(=O)O)NC(=O)C(C)(C)NC(=O)[C@@H](N)Cc1ccc(O)cc1)[C@@H](C)O)[C@@H](C)O)[C@@H](C)CC)[C@@H](C)CC)C(C)C)C(=O)N[C@@H](C)C(=O)NCC(=O)NCC(=O)N1CCC[C@H]1C(=O)N[C@@H](CO)C(=O)N[C@@H](CO)C(=O)NCC(=O)N[C@@H](C)C(=O)N1CCC[C@H]1C(=O)N1CCC[C@H]1C(=O)N1CCC[C@H]1C(=O)N[C@@H](CO)C(N)=O` [Tirzepatide], the “blood HDL content” value [1] is reported as 0.85 ± 0.35, the “Lee's index” value [2] is reported as 13.18 ± 0.35 and the “blood LDL content” value (D 0 (before the test)) is reported as 2.49 ± 1.21. The “blood TC content” value (D 0 (before the test)) was 2.48 ± 0.19, the “blood TG content” value (D 0 (before the test)) was 1.79 ± 0.24 and the “blood HDL content” value (D 11) was 1.30 ± 0.36. The “blood LDL content” value (D 11) was 2.20 ± 0.68, the “blood TC content” value (D 11) was 2.02 ± 0.34 and the “blood TG content” value (D 11) was 1.79 ± 0.45. For the same compound, the “blood HDL content” value (D 23) was 1.48 ± 0.40, the “blood LDL content” value (D 23) was 1.55 ± 0.56 and the “blood TC content” value (D 23) was 2.13 ± 0.18. For the same compound, the “blood TG content” value (D 23) was 0.78 ± 0.16, the “Lee's index” value (SC once every three days, D 23) was 14.51 ± 0.48 and the body weight [3] was 17.96 ± 2.01. For the same compound, the body weight [4] was 17.09 ± 1.61, the body weight [5] was 16.91 ± 1.55 and the body weight [6] was 17.01 ± 2.24. For the same compound, the body weight [7] was 17.55 ± 2.03, the body weight [8] was 17.49 ± 2.19 and the body weight [9] was 18.21 ± 2.42. It also gave a body weight [10] of 16.91 ± 1.75, a body weight [11] of 17.49 ± 2.07 and a body weight [12] of 17.96 ± 2.35. For the same compound, the body weight [13] was 17.25 ± 2.17, the body weight [14] was 16.85 ± 1.85 and the body weight [15] was 16.74 ± 2.07. For the same compound, the body weight [16] was 17.13 ± 1.75, the body weight [17] was 19.01 ± 2.47 and the body weight [18] was 20.43 ± 2.29. The body weight [19] was 19.48 ± 2.51, the body weight [20] was 19.84 ± 2.67 and the body weight [21] was 21.20 ± 2.41. The body weight [22] was 20.33 ± 2.73, the body weight [23] was 20.33 ± 2.73 and the body weight [24] was 21.06 ± 2.96. The body weight [25] was 21.83 ± 2.96, the body weight [26] was 21.35 ± 3.11 and the “fat-weight coefficient, abdominal subcutaneous fat” value was 0.75 ± 0.24. The “fat-weight coefficient, perigonadal fat” value was 3.60 ± 0.68, the “fat-weight coefficient, scapular subcutaneous fat” value was 1.16 ± 0.34 and the food intake was “can significantly control food intake”. For the same compound, the water intake was “can significantly control water intake”, the blood glucose (D 3) was 6.30 ± 1.95 and the blood glucose (D 7) was 4.44 ± 0.93. The blood glucose (D 10) was 6.16 ± 1.78, the blood glucose (D 14) was 6.71 ± 1.08 and the blood glucose (D 17) was 8.19 ± 1.05. For the same compound, the blood glucose (D 23) was 8.46 ± 1.92.

`CC[C@H](C)[C@H](NC(=O)[C@H](CCCCN)NC(=O)[C@H](CC(=O)O)NC(=O)[C@H](CC(C)C)NC(=O)C(C)(C)NC(=O)[C@@H](NC(=O)[C@H](CO)NC(=O)[C@H](Cc1ccc(O)cc1)NC(=O)[C@H](CC(=O)O)NC(=O)[C@H](CO)NC(=O)[C@@H](NC(=O)[C@H](Cc1ccccc1)NC(=O)[C@@H](NC(=O)CNC(=O)[C@H](CC(=O)O)NC(=O)C(C)(C)NC(=O)[C@@H](N)Cc1ccc(O)cc1)[C@@H](C)O)[C@@H](C)O)[C@@H](C)CC)C(=O)N[C@@H](C)C(=O)N[C@@H](CCC(N)=O)C(=O)N[C@@H](CCCCNC(=O)COCCOCC(=O)NCCOCCOCCNC(=O)CCC(NC(=O)CCCCCCCCCCCCCCCCCCC(=O)O)C(=O)O)C(=O)N[C@@H](C)C(=O)N[C@@H](Cc1ccccc1)C(=O)N[C@H](C(=O)N[C@@H](CCC(N)=O)C(=O)N[C@@H](Cc1c[nH]c2ccccc12)C(=O)N[C@@H](CC(C)C)C(=O)N[C@@H](CC(C)C)C(=O)N[C@@H](C)C(=O)NCC(=O)NCC(=O)N1CCC[C@H]1C(=O)N[C@@H](CO)C(=O)N[C@@H](CO)C(=O)NCC(=O)N[C@@H](C)C(=O)N1CCC[C@H]1C(=O)N1CCC[C@H]1C(=O)N1CCC[C@H]1C(=O)N[C@@H](CO)C(N)=O)C(C)C` (some centres unmarked) [Polypeptide derivative (1)] (H-Y[Aib]DGTFTSDYSI[Aib]LDKIAQK(X1)AFVQWLLAGGPSSGAPPPS-NH2) was tested, and the “blood HDL content” value [1] was 1.24 ± 0.35, the “Lee's index” value [2] was 12.97 ± 0.40 and the “blood LDL content” value (D 0 (before the test)) was 2.90 ± 0.79. For the same compound, the “blood TC content” value (D 0 (before the test)) was 3.42 ± 0.44, the “blood TG content” value (D 0 (before the test)) was 1.86 ± 0.27 and the “blood HDL content” value (D 11) was 1.11 ± 0.27. For the same compound, the “blood LDL content” value (D 11) was 2.05 ± 0.68, the “blood TC content” value (D 11) was 2.71 ± 0.70 and the “blood TG content” value (D 11) was 2.27 ± 1.07. For the same compound, the “blood HDL content” value (D 23) was 1.28 ± 0.40, the “blood LDL content” value (D 23) was 1.24 ± 0.68 and the “blood TC content” value (D 23) was 2.50 ± 0.34. For the same compound, the “blood TG content” value (D 23) was 1.12 ± 0.15, the “Lee's index” value (SC once every three days, D 23) was 14.66 ± 0.50 and the body weight [3] was 16.01 ± 1.77. The body weight [4] was 15.81 ± 1.59, the body weight [5] was 15.98 ± 1.49 and the body weight [6] was 15.93 ± 1.64. The body weight [7] was 17.09 ± 1.85, the body weight [8] was 16.38 ± 1.73 and the body weight [9] was 17.28 ± 2.04. For the same compound, the body weight [10] was 16.36 ± 2.26, the body weight [11] was 16.94 ± 2.00 and the body weight [12] was 17.69 ± 1.76. For the same compound, the body weight [13] was 17.03 ± 1.64, the body weight [14] was 16.60 ± 1.66 and the body weight [15] was 17.66 ± 1.27. It also gave a body weight [16] of 17.26 ± 1.83, a body weight [17] of 18.91 ± 2.02 and a body weight [18] of 19.75 ± 2.27. The body weight [19] was 18.90 ± 2.20, the body weight [20] was 19.50 ± 2.27 and the body weight [21] was 20.39 ± 2.24. The body weight [22] was 20.45 ± 2.24, the body weight [23] was 20.45 ± 2.24 and the body weight [24] was 22.10 ± 3.26. The body weight [25] was 22.86 ± 3.46, the body weight [26] was 22.08 ± 3.14 and the “fat-weight coefficient, abdominal subcutaneous fat” value was 0.84 ± 0.34. The “fat-weight coefficient, perigonadal fat” value was 3.33 ± 0.55, the “fat-weight coefficient, scapular subcutaneous fat” value was 1.21 ± 0.13 and the food intake was “can significantly control food intake”. The water intake was “can significantly control water intake”, the blood glucose (D 3) was 5.03 ± 1.63 and the blood glucose (D 7) was 5.06 ± 2.26. For the same compound, the blood glucose (D 10) was 6.46 ± 1.30, the blood glucose (D 14) was 6.96 ± 0.82 and the blood glucose (D 17) was 8.49 ± 0.90. It also gave a blood glucose (D 23) of 7.69 ± 2.49.
